From PMC12106737
Results are given in words; binding and its absence hold for the method and conditions named. Binding seen in cells or lysates may run through a third protein. Some entries that bind do so weakly or less than the wild type. Tags and fused reporters may be left off the sequences shown.

The chains behind the UniProt entries cited, without tags or fusion partners.
UniProt Q13619: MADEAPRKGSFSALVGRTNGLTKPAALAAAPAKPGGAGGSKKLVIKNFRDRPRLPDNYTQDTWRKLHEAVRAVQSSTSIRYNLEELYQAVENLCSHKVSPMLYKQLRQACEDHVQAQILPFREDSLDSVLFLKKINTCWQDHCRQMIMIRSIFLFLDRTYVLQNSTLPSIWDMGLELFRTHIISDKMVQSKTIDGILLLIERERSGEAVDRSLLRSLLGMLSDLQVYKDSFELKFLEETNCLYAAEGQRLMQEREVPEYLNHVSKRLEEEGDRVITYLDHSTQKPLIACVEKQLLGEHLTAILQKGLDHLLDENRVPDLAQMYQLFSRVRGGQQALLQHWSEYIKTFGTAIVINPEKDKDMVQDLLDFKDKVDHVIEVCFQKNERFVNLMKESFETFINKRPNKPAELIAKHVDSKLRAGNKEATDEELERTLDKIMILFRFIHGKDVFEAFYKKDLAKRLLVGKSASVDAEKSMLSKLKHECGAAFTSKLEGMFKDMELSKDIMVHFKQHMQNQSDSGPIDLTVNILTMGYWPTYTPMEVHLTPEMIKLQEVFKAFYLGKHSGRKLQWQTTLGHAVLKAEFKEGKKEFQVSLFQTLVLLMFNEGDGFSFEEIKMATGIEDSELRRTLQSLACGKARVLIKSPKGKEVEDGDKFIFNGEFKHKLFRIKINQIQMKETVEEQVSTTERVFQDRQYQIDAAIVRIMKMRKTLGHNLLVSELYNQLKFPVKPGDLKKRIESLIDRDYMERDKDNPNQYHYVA
UniProt Q13620: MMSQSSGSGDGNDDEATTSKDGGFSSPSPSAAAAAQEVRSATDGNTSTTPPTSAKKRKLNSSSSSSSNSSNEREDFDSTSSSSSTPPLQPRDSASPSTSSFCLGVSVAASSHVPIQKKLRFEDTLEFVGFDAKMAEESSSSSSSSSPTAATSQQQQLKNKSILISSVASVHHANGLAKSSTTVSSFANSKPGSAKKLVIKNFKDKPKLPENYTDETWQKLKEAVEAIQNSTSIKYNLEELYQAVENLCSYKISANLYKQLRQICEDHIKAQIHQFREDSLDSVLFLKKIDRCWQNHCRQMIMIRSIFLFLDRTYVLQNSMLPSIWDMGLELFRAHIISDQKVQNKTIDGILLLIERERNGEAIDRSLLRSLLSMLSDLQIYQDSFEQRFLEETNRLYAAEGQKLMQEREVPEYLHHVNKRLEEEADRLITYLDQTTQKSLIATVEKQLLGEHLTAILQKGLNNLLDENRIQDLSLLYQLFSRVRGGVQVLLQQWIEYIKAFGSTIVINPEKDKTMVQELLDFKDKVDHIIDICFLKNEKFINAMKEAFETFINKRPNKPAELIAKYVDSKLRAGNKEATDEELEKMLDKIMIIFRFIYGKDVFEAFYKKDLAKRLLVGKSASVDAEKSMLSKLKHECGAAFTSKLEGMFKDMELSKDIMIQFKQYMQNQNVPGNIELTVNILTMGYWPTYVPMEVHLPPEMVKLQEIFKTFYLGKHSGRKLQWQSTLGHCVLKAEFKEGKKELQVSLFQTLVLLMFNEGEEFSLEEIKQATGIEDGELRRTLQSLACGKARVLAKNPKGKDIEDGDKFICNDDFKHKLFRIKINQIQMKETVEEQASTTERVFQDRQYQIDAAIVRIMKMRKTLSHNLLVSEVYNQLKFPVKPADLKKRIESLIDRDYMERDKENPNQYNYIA
UniProt Q93034: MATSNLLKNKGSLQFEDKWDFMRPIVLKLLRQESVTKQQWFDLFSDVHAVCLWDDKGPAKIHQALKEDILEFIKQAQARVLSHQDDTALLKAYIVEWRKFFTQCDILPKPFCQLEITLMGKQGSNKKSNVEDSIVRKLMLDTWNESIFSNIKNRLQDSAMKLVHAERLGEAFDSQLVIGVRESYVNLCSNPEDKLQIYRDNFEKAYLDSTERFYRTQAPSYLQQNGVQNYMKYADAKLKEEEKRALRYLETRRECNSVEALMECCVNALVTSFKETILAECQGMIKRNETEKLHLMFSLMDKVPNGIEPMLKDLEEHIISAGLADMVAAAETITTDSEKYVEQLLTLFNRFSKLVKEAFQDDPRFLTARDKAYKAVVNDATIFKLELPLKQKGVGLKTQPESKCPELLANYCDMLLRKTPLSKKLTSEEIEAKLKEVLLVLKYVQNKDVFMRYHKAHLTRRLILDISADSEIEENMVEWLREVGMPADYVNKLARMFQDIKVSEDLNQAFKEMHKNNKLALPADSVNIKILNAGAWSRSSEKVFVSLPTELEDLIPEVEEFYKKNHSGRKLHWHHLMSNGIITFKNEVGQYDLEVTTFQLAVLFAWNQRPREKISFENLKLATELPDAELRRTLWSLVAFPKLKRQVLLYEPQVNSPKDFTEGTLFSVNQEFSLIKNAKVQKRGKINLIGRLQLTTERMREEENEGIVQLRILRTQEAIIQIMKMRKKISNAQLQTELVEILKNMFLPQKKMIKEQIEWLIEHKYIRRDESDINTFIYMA
UniProt Q14999: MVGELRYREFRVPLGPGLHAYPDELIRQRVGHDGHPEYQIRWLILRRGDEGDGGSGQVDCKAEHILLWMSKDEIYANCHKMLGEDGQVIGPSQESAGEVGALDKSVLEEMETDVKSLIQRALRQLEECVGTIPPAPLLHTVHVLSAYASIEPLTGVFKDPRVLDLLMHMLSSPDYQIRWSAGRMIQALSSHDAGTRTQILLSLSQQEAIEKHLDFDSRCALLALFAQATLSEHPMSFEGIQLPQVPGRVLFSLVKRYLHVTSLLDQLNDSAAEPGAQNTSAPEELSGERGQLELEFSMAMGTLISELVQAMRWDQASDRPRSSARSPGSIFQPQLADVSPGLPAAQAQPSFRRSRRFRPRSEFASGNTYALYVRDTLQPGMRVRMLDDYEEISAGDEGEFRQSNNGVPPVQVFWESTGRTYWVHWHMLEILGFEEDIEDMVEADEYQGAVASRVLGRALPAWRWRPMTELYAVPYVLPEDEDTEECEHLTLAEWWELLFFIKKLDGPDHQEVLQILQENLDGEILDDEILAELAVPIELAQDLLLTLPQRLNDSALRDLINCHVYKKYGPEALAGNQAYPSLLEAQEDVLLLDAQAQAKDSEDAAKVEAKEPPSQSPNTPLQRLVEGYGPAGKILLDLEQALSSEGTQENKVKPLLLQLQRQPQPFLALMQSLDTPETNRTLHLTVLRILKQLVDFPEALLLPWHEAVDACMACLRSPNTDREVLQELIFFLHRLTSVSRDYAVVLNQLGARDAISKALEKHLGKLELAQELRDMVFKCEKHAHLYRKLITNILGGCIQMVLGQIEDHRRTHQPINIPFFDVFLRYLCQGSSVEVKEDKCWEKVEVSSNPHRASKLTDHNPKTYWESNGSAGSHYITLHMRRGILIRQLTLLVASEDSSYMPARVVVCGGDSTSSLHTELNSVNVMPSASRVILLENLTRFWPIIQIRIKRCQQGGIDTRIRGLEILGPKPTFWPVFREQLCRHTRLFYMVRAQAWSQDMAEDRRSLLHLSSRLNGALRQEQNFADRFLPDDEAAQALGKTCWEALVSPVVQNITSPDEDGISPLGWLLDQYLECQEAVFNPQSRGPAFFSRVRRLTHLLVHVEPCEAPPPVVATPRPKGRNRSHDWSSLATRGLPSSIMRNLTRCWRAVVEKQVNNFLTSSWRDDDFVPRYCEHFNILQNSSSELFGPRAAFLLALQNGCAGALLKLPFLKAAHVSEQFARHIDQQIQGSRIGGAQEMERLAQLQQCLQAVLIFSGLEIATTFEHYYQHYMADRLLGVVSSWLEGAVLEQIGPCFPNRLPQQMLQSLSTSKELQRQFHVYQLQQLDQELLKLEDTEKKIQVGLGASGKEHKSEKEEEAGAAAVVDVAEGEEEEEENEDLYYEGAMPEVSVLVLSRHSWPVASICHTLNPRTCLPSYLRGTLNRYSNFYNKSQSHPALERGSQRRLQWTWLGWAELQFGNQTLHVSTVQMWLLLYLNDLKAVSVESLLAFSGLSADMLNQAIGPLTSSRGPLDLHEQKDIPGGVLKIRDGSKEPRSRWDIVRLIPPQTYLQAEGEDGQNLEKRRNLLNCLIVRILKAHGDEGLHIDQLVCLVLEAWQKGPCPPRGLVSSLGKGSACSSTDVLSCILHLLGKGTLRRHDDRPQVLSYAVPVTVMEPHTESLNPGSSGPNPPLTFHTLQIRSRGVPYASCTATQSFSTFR

Target: T1, Flag-tagged FBP1 (fructose-1,6-bisphosphatase) (human) (UniProt P09467)
T1 sequence: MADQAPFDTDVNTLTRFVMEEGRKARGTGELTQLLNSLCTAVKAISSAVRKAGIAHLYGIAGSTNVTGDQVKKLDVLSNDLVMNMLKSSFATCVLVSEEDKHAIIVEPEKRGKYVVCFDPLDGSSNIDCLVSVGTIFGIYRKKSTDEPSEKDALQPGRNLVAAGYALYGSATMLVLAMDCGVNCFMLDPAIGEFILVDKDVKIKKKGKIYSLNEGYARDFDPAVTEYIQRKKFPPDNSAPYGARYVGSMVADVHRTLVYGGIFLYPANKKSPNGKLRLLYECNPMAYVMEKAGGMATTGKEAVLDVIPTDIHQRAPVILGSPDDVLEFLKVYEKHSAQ
Assay: co-IP; HEK293T cells transfected with Flag-FBP1 and Myc-Cullins; cell lysates, immunoprecipitation and Western blot by standard protocols

binding	Substance
no binding	Myc-CUL4A (from UniProt Q13619 1-759)
binds	Myc-CUL4B (from UniProt Q13620 1-913)
no binding	Myc-CUL5 (from UniProt Q93034 1-780)
no binding	Myc-CUL7 (from UniProt Q14999 1-1698)
